{
  "source": "PubChem BioAssay AID624291",
  "about": "(National Center for Advancing Translational Sciences (NCATS), 2012)",
  "note": "The campaign covered roughly 350,000 compounds. About 220 (0.063%) were called active. The shares of active, inactive and inconclusive entries below differ from those in the screen. The call rests on the fitted dose curve; in most records, active means well fitted activation curve with a large enough effect; inconclusive means small, poorly fitted or top-dose-only effect; inactive means no such curve, though single readings can be large or run the other way. A potency beside an inconclusive call is a rough fit, not a confirmed value. Potency means the concentration at half of the fitted maximal effect.",
  "data": [
    {"test": "qHTS for Activators of Integrin-Mediated Alleviation for Muscular Dystrophy; further: nearly all actives have a fitted effect of over 60% in size;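 on activation: 100% = response of the positive control SU9516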", "details": "alpha7betagal myoblasts, beta-gal FDG fluorescence, 48 h; activation: at 38.3 µM (top of the series)", "method_in_brief": "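Alpha7betagal+/- myoblasts (passage 13) were plated 16-24 hr, then exposed to compounds (1:260 dilution of DMSO stock) for 48 hours at 37C. After MPER lysis, β-galactosidase reporter activity was read as FDG fluorescence (ex 480/em 540) after 30 minutes.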", "values": [
      {"smiles": "O=c1c(C/C=C/c2ccccc2)c(O)nc2n1CCCS2", "Potency": "inconclusive: 5.01 µM [activator, single point]"},
      {"smiles": "O=C(Nc1ccc([N+](=O)[O-])cc1NC(=O)c1ccccc1)c1ccccc1", "Potency": "inactive"},
      {"smiles": "O=C(Nn1cnnc1)c1ccc(Cl)cc1", "Potency": "inconclusive: 8.91 µM [activator, partial curve, poor fit]"},
      {"smiles": "COCCNC(=O)C1CC(=O)N(c2ccc(OC)cc2)C1c1ccc(OC)cc1", "note": "(stereo unspecified)", "Potency": "inconclusive: 10 µM [activator, single point]"},
      {"smiles": "FC(F)(F)Oc1ccc(-c2cn3cccnc3n2)cc1", "Potency": "inconclusive: 5.01 µM [activator, single point]"},
      {"smiles": "CN(C(=O)CN1C(=O)S/C(=C\\c2ccccc2F)C1=O)C1CCS(=O)(=O)C1", "note": "(stereo unspecified)", "Potency": "inconclusive: 5.01 µM [activator, single point]"},
      {"smiles": "Cc1cc(Cl)ccc1C(=O)C1CCCN(C(=O)c2cc(C(C)C)no2)C1", "note": "(stereo unspecified)", "Potency": "inconclusive: 1.41 µM [activator, partial curve, poor fit]"},
      {"smiles": "CC(C)(C)OC(=O)C[C@@H]1C/C=C\\C[C@H](CC(=O)N(CCO)Cc2ccccc2)C(=O)N[C@H](Cc2ccccc2)COC1=O", "Potency": "inactive"},
      {"smiles": "CCOc1ccc(/C=N/NC(=O)c2nnn(-c3nonc3N)c2-c2cccs2)cc1", "Potency": "inactive"},
      {"smiles": "O=[N+]([O-])c1c(NCCO)cc(N2CCCCCC2)c2nonc12", "Potency": "inconclusive: 28.2 µM [activator, partial curve, poor fit]"},
      {"smiles": "COc1ccccc1N/C=C(\\C#N)c1nc2ccccc2[nH]1", "Potency": "inactive"},
      {"smiles": "CCOc1cc(/C=N/N=C/c2ccc(O)c(OCC)c2)ccc1O", "Potency": "inconclusive: 5.01 µM [activator, single point]"},
      {"smiles": "C=CCOc1ccc(/C=N\\NC(N)=S)cc1", "Potency": "inconclusive: 28.2 µM [activator, single point]"},
      {"smiles": "CCOC(CC(=O)NNC(=O)c1c(-c2c(Cl)cccc2Cl)noc1C)OCC", "Potency": "inconclusive: 22.4 µM [activator, single point]"},
      {"smiles": "COc1ccc(/C=N/NC(=O)c2sc(C)nc2C)cc1", "Potency": "inconclusive: 1.78 µM [activator, partial curve, poor fit]"},
      {"smiles": "CC12CCC(C(=O)NCc3ccccc3)(OC1=O)C2(C)C", "note": "(stereo unspecified)", "Potency": "inactive"},
      {"smiles": "Cc1ccc2c(c1)C(=O)CC(c1ccccc1)S2", "note": "(stereo unspecified)", "Potency": "inconclusive: 3.55 µM [activator, single point]"},
      {"smiles": "Cc1cc(C)n(CCCNC(=O)c2ccco2)n1", "Potency": "inconclusive: 8.91 µM [activator, single point]"},
      {"smiles": "O=C(CN(CCO)c1ccccc1)Nc1cccc(S(=O)(=O)N2CCCC2)c1", "Potency": "inconclusive: 5.62 µM [activator, single point]"},
      {"smiles": "COc1ccc(NC(=O)NN2CCN(C)CC2)cc1OC", "Potency": "inconclusive: 3.55 µM [activator, single point]"},
      {"smiles": "CC(Oc1ccc(Br)cc1)C(=O)NC1CCCCCC1", "note": "(stereo unspecified)", "Potency": "inconclusive: 28.2 µM [activator, single point]"},
      {"smiles": "COc1nccnc1NS(=O)(=O)c1ccc(NC(=S)NC(=O)/C=C/c2ccccc2)cc1", "Potency": "inactive"},
      {"smiles": "Cc1nccnc1Sc1ccccc1", "Potency": "inconclusive: 2.82 µM [activator, full curve, poor fit]"},
      {"smiles": "CSc1ccc(Cl)c(C(=O)Nc2ccc(C)cn2)c1", "Potency": "inactive"},
      {"smiles": "CC1Cc2cc(S(=O)(=O)N3CCCCC3)ccc2N1C(=O)C1CCC1", "note": "(stereo unspecified)", "Potency": "inconclusive: 7.94 µM [activator, partial curve, poor fit]"},
      {"smiles": "CC(=O)NCCNS(=O)(=O)c1ccc(C)c([N+](=O)[O-])c1", "Potency": "inactive"},
      {"smiles": "CC(=O)Nc1cccc(NC(=O)CSc2ccc(-c3ccco3)nn2)c1", "Potency": "inconclusive: 2.51 µM [activator, single point]"},
      {"smiles": "COc1ccc(-c2cc(C(=O)NN)[nH]n2)cc1", "Potency": "inconclusive: 0.794 µM [activator, full curve, poor fit]"},
      {"smiles": "COc1cc2c(cc1NC(=O)COC(=O)C(CCSC)NC(=O)c1ccccc1Cl)oc1ccccc12", "note": "(stereo unspecified)", "Potency": "inactive"},
      {"smiles": "CCc1nnc(NC2=NCCC2)s1", "Potency": "inactive"},
      {"smiles": "Cc1cc(C)c(C)c(OCCCCN(C)Cc2ccccc2)c1", "Potency": "inactive"},
      {"smiles": "COc1ccc(Cl)cc1C(=O)NCc1ccco1", "Potency": "inconclusive: 10 µM [activator, single point]"},
      {"smiles": "COc1cn(-c2ccccc2)nc1C(=O)Nc1ccc(C)cc1Cl", "Potency": "inconclusive: 8.91 µM [activator, partial curve, poor fit]"},
      {"smiles": "COc1ccc(C(=O)NNC(=O)OC(C)(C)C)cc1", "Potency": "inconclusive: 11.2 µM [activator, single point]"},
      {"smiles": "Cc1csc2nc3ccccc3c(=O)n12", "Potency": "inactive"},
      {"smiles": "COc1ccc(C(=O)NCc2ccon2)cc1OC1CCN(C(C)C)CC1", "Potency": "inconclusive: 0.355 µM [activator, full curve, poor fit]"},
      {"smiles": "COc1ccc(C)cc1S(=O)(=O)N1CCN(C(=O)c2ncoc2-c2cccc(F)c2)CC1", "Potency": "inactive"},
      {"smiles": "CC(C)(C)C(=O)NC(c1ccccc1)c1c(O)ccc2ccccc12", "note": "(stereo unspecified)", "Potency": "inconclusive: 11.2 µM [activator, single point]"},
      {"smiles": "CCOC(=O)c1nnn(CC(=O)N2N=C(c3cccc4ccccc34)CC2c2ccccc2)c1C(=O)OCC", "note": "(stereo unspecified)", "Potency": "inactive"},
      {"smiles": "CC(=O)Nc1ccc(C(=O)N/N=C/c2ccncc2)cc1", "Potency": "inactive"},
      {"smiles": "COc1ccccc1N1CCN(C(=O)C2CCN(S(=O)(=O)c3ccc4c(c3)CC(C)N4C(C)=O)CC2)CC1", "note": "(stereo unspecified)", "Potency": "inconclusive: 5.01 µM [activator, single point]"},
      {"smiles": "Cc1ccc(S(=O)(=O)N/N=C\\c2ccc3c(c2)OCO3)c(C)c1", "Potency": "inconclusive: 28.2 µM [activator, single point]"},
      {"smiles": "CCN1/C(=C/c2ccc3cc(C)ccc3[n+]2CC)Sc2ccc3sccc3c21", "activation": "inconclusive: 0% [activator]"},
      {"smiles": "CCN(CC)CCOc1ccccc1C(C)=O", "Potency": "inconclusive: 2.82 µM [activator, single point]"},
      {"smiles": "CCc1ccc(N2Cc3ccccc3C2)cc1", "Potency": "inconclusive: 10 µM [activator, partial curve, poor fit]"},
      {"smiles": "COc1ccccc1N1CCN(C(=O)c2cc(C)on2)CC1", "Potency": "inconclusive: 5.01 µM [activator, single point]"}
    ]}
  ]
}
